According to patent publication US12551532B2 (Eli Lilly and Company, priority 2021, dated 2026):

Test: general procedure: Fmoc solid-phase peptide synthesis; Polystyrene Rink Amide MBHA resin LL (Novabiochem, 0.35 meq/g, 100-200 mesh); diisopropylcarbodiimide/Oxyma; PyAOP/DIEA for fatty acid-linker
Settings: whole synthesis, analytical RP-HPLC, Waters SymmetryShield RP18 column, scale of the general procedure 0.13 mmol, TFA salt, cyclic, sequence written open

γE-CNTATCATG-Orn-LAE-αMeF-LVRSSN-NMeN-FGPKLPPTEVGSNTY-NH2
final HPLC purity: >98.4%
